# According to patent US12310942B2, “Pharmaceutical compositions comprising statins and hyaluronic acid derivatives” (FIDIA FARMACEUTICI S.p.A., priority 2019, dated 2025):
# For at least one compound, name, drawing or mass did not settle the structure.
# Tested on: MMP-13
# Experiment: MMP-13 concentration in biopsy supernatants (ELISA)
# Format: cell-based, bovine
# Conditions: biopsies exposed to OSM and IL-1β 10 ng/mL each, 21 days; HYADD-4 or HA 0.1 mg/mL, simvastatin 10 μM; FIG. 2
structure (smiles),measurement,value
CCC(C)(C)C(=O)O[C@H]1C[C@@H](C)C=C2C=C[C@H](C)[C@H](CC[C@@H]3C[C@@H](O)CC(=O)O3)[C@H]21 [simvastatin],MMP-13 concentration in the supernatant,cancels out the effect induced by the inflammatory stimulus
